These are literature values, as cited in patent EP3155636B1, “A PROBE FOR EXTRACTION OF MOLECULES OF INTEREST FROM A SAMPLE” (JP Scientific Limited, priority 2014, dated 2015).

In this data set the test system is plasma proteins. The following applies: given to explain the higher LOQ in plasma.

As to `CN1C(=O)CN=C(c2ccccc2)c2cc(Cl)ccc21` [DZP, diazepam], the “bound to plasma proteins” value is reported as 98%.
